For at least one compound, name, drawing or mass did not settle the structure.
How the values were obtained:
Male C57Bl/6J mice [1] = test: Elevated plus maze (EPM), DOI 2 mg/kg in all conditions; format: in vivo
Male C57Bl/6J mice [2] = conditions: selective 5-HT2A antagonist alone; previously demonstrated (U.S. Pat. No. 9,846,453); cited from earlier work
Male BalbC/J mice = test: Rodent forced swim test (FST), immobility time; format: in vivo; conditions: agent alone (Table 3)
Excerpt: Male BalbC/J mice (8 weeks old) from Jackson Laboratories (Bar Harbor, Me.) were used. Upon receipt, mice were assigned unique identification numbers (tail marked) and were group housed in OPTImice cages. All animals were acclimated to the colony room for 1 week prior to testing. During the period of acclimation, animals were examined on a regular basis, handled, and weighed to assure adequate health and suitability. Animals were maintained on a 12/12 light/dark cycle. The room temperature was maintained between 20 and 23° C. with a relative humidity maintained between 30% and 70%. Chow and water were provided ad libitum for the duration of the study. All testing was performed during the animal's light cycle phase.
Mice were acclimated to the test room at least 1 hour prior to commencing the test. The forced swimming test consisted of one 6-minute session of forced swimming in individual opaque cylinders (15 cm tall×10 cm wide, 1000 ml beakers) containing fresh tap water at a temperature of 23±2° C. and a depth of 12 cm (approximately 800 ml) for each test animal. The time the animal spent immobile was recorded over the 6 min trial. Every 1 min the cumulative immobility time was recorded from the start of the session and noted on the study data record sheet. Immobility was defined as the postural position of floating in the water. […]

SMILES	Distance travelled in the open arm relative to the vehicle, in words (Male C57Bl/6J mice [1]; Table 6 doses, DOI 2 mg/kg added in all conditions)	Distance travelled in the open arm and % time in the open arm, in words (Male C57Bl/6J mice [2])	Effect on distance travelled in open arm / % time in open arm of EPM, in words (Male C57Bl/6J mice [1]; agent alone vs control, doses of Tables 1 and 2)	Effect on immobility in the forced swim test, in words (Male BalbC/J mice)
N#Cc1c[nH]c2c(C(=O)N3CCN(CCc4ccc(F)cc4)CC3)cccc12 [EMD281014]	significantly reduced	significantly reduced	–	–
O=C1[C@@H]2[C@H]3CC[C@H](C3)[C@@H]2C(=O)N1C[C@@H]1CCCC[C@H]1CN1CCN(c2nsc3ccccc23)CC1 [Lurasidone]	–	–	dose-dependent reduction	did not significantly affect immobility

— US11576911B2, “Composition and method for treatment of depression and psychosis in humans” (Glytech LLC, priority 2012, dated 2023)
